Test results as given in patent publication US8058240B2, “Biological active ligands of melanocortin receptors” (University of Florida Research Foundation, Inc., priority 2006, dated 2011).
For at least one compound, name, drawing or mass did not settle the structure. Ends that are not written are not given here.

Amino acid sequences for entries named in this document (tags omitted).
UniProt P32245, whole entry N97D: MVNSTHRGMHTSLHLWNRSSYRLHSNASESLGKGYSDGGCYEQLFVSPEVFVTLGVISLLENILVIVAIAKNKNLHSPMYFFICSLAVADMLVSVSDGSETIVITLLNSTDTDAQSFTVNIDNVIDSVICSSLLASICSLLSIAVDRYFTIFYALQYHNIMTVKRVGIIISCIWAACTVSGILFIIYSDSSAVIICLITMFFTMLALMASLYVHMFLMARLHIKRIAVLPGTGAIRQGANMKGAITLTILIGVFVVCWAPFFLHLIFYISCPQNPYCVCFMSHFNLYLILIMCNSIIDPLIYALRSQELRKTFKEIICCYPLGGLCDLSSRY

Target: T1, N97D hMC4R (Homo sapiens, UniProt P32245, N97D)
T1 construct: expressed in transfected cells
Test: cAMP based functional bioassay, agonist stimulation, stably transfected HEK-293 cells
Format: cell-based
Conditions: read-out: EC50 (value not reportable at up to 10 μM ligand concentrations), unit from footnote, column head prints nM

In the case of SYSMEHFRWGKPVGKKRRPVKYPN [ACTH(1-24)], the EC50 is reported as greater than 10000 nM.
